Reference: US20150147411A1, “COMPOSITION FOR PREVENTING OR TREATING COLITIS COMPRISING S-ALLYL-L-CYSTEINE AS ACTIVE INGREDIENT, AND MEDICAL PREPARATION COMPRISING SAME” (PHARMAKING CO., LTD., priority 2012, published 2015)

Experiment: Body weight of mice pre-treated with compositions, DSS-induced colitis
Format: in vivo, C57BL6 mice
Conditions: 2011.12.28, start of experiment
Method: In this experiment, C57BL6 mice were employed for the following reasons. The experimental animals are widely used throughout the world and are evaluated as being suitable for validity assays. In addition, because a great amount of fundamental test data on various disease models of the animals has been accumulated, the data can be utilized in analyzing and assessing test results. When purchased from OrientBio Inc. the experimental animals weighed 18 g±20%. They were bred under a light intensity of 150˜300 Lux in the controlled condition of 12:12-h light-dark cycles, with at least 10 ventilation rounds per hour.
For use in testing therapeutic effects of the agents of Examples, Comparative Examples, and Control Examples, the mice (G1 to G7) were fed with a 2.5 wt % aqueous dextran sodium sulfate (DSS) solution to induce inflammatory bowel disease therein.
Weights are expressed as mean±standard deviation.
From Jan. 12, 2012, the mice were allowed to drink an aqueous DSS 2.5 wt % solution for 7 days. DSS-induced diarrhea or hematochezia caused mice in groups G2 to G7 to lose weight, as compared at the point of DSS treatment.

SMILES | Body weight (mean ± standard deviation) (G7, Control 50 mg/kg) | Body weight (mean ± standard deviation) (G3, Ex. 1 12.5 mg/kg) | Body weight (mean ± standard deviation) (G4, Ex. 1 25 mg/kg) | Body weight (mean ± standard deviation) (G5, Ex. 1 50 mg/kg) | Body weight (mean ± standard deviation) (G6, Ex. 1 100 mg/kg)
O=C(NC(Cc1cc(=O)[nH]c2ccccc12)C(=O)O)c1ccc(Cl)cc1 (centres unmarked) [Control, Rebamipide, reference compound] | 20.7 ± 0.7 g | – | – | – | –
C=CCSC[C@H](N)C(=O)O [Example 1, S-allyl-L-cysteine] | – | 20.9 ± 1.5 g | 20.2 ± 0.9 g | 20.7 ± 1.1 g | 20.5 ± 0.9 g
